Results are given in words; binding and its absence hold for the method and conditions named. Some results given as binding are weak or reduced against the parent protein; the word gives no strength.
Key:
[1] = biological target: T1, human plasma kallikrein (pKal) (human, UniProt P03952 20-638); experiment: sandwich ELISA of complexes in normal human plasma activated with dextran sulfate
[2] = biological target: T1, human plasma kallikrein (pKal); experiment: covalent complex purified by cation exchange chromatography (Capto S), fractions on SDS-PAGE
[3] = biological target: T1, human plasma kallikrein (pKal); experiment: complex formation, purified by cation exchange chromatography
[4] = biological target: T1, human plasma kallikrein (pKal); experiment: ELISA for the C1INH-pKal complex in normal human plasma with and without in vitro activation by dextran sulfate
[5] = biological target: T1, human plasma kallikrein (pKal); experiment: complex formation, purified by size exclusion chromatography
[6] = biological target: T1, human plasma kallikrein (pKal); experiment: covalent complex purified by size exclusion chromatography (Superdex 200), fractions on SDS-PAGE
[7] = biological target: T1, human plasma kallikrein (pKal); experiment: ELISA for the α2M-pKal complex in normal human plasma with and without in vitro activation by dextran sulfate

The chains behind the UniProt entries cited, without tags or fusion partners. Residues count along the entry.
UniProt P03952, residues 20-638: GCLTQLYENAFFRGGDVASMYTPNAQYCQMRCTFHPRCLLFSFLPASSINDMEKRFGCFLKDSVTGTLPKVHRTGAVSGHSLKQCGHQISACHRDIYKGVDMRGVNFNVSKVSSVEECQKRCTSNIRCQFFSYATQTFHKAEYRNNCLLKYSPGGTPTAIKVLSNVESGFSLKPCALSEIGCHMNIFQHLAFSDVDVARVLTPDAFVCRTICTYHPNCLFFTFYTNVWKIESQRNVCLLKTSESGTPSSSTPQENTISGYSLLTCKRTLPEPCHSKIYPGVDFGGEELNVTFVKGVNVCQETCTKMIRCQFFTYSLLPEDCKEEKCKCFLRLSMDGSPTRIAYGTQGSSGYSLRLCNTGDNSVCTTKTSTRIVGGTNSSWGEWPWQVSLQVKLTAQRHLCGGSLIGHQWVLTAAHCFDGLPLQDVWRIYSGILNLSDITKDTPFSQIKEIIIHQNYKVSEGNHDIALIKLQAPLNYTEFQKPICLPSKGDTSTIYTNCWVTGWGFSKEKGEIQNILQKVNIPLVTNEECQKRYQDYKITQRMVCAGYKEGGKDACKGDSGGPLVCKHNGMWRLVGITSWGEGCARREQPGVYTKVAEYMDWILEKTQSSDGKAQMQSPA

Measured: binding

B1: C1 inhibitor (C1-INH) (protein, UniProt P05155 23-500, looked up)
chain: NPNATSSSSQDPESLQDRGEGKVATTVISKMLFVEPILEVSSLPTTNSTTNSATKITANTTDEPTTQPTTEPTTQPTIQPTQPTTQLPTDSPTQPTTGSFCPGPVTLCSDLESHSTEAVLGDALVDFSLKLYHAFSAMKKVETNMAFSPFSIASLLTQVLLGAGENTKTNLESILSYPKDFTCVHQALKGFTTKGVTSVSQIFHSPDLAIRDTFVNASRTLYSSSPRVLSNNSDANLELINTWVAKNTNNKISRLLDSLPSDTRLVLLNAIYLSAKWKTTFDPKKTRMEPFHFKNSVIKVPMMNSKKYPVAHFIDQTLKAKVGQLQLSHNLSLVILVPQNLKHRLEDMEQALSPSVFKAIMEKLEMSKFQPTLLTLPRIKVTTSQDMLSIMEKLEFFDFSYDLNLCGLTEDPDLQVSAMQHQTVLELTETGVEAAAASAISVARTLLVFEVQQPFLFVLWDQQHKFPVFMGRVYDPRA
binds: [1] | [2] | [3] | [4]

B2: alpha 2 macroglobulin (α2M) (other, UniProt P01023 24-1474, looked up)
chain: SVSGKPQYMVLVPSLLHTETTEKGCVLLSYLNETVTVSASLESVRGNRSLFTDLEAENDVLHCVAFAVPKSSSNEEVMFLTVQVKGPTQEFKKRTTVMVKNEDSLVFVQTDKSIYKPGQTVKFRVVSMDENFHPLNELIPLVYIQDPKGNRIAQWQSFQLEGGLKQFSFPLSSEPFQGSYKVVVQKKSGGRTEHPFTVEEFVLPKFEVQVTVPKIITILEEEMNVSVCGLYTYGKPVPGHVTVSICRKYSDASDCHGEDSQAFCEKFSGQLNSHGCFYQQVKTKVFQLKRKEYEMKLHTEAQIQEEGTVVELTGRQSSEITRTITKLSFVKVDSHFRQGIPFFGQVRLVDGKGVPIPNKVIFIRGNEANYYSNATTDEHGLVQFSINTTNVMGTSLTVRVNYKDRSPCYGYQWVSEEHEEAHHTAYLVFSPSKSFVHLEPMSHELPCGHTQTVQAHYILNGGTLLGLKKLSFYYLIMAKGGIVRTGTHGLLVKQEDMKGHFSISIPVKSDIAPVARLLIYAVLPTGDVIGDSAKYDVENCLANKVDLSFSPSQSLPASHAHLRVTAAPQSVCALRAVDQSVLLMKPDAELSASSVYNLLPEKDLTGFPGPLNDQDNEDCINRHNVYINGITYTPVSSTNEKDMYSFLEDMGLKAFTNSKIRKPKMCPQLQQYEMHGPEGLRVGFYESDVMGRGHARLVHVEEPHTETVRKYFPETWIWDLVVVNSAGVAEVGVTVPDTITEWKAGAFCLSEDAGLGISSTASLRAFQPFFVELTMPYSVIRGEAFTLKATVLNYLPKCIRVSVQLEASPAFLAVPVEKEQAPHCICANGRQTVSWAVTPKSLGNVNFTVSAEALESQELCGTEVPSVPEHGRKDTVIKPLLVEPEGLEKETTFNSLLCPSGGEVSEELSLKLPPNVVEESARASVSVLGDILGSAMQNTQNLLQMPYGCGEQNMVLFAPNIYVLDYLNETQQLTPEIKSKAIGYLNTGYQRQLNYKHYDGSYSTFGERYGRNQGNTWLTAFVLKTFAQARAYIFIDEAHITQALIWLSQRQKDNGCFRSSGSLLNNAIKGGVEDEVTLSAYITIALLEIPLTVTHPVVRNALFCLESAWKTAQEGDHGSHVYTKALLAYAFALAGNQDKRKEVLKSLNEEAVKKDNSVHWERPQKPKAPVGHFYEPQAPSAEVEMTSYVLLAYLTAQPAPTSEDLTSATNIVKWITKQQNAQGGFSSTQDTVVALHALSKYGAATFTRTGKAAQVTIQSSGTFSSKFQVDNNNRLLLQQVSLPELPGEYSMKVTGEGCVYLQTSLKYNILPEKEEFPFALGVQTLPQTCDEPKAHTSFQISLSVSYTGSRSASNMAIVDVKMVSGFIPLKPTVKMLERSNHVSRTEVSSNHVLIYLDKVSNQTLSLFFTVLQDVPVRDLKPAIVKVYDYYETDEFAIAEYNAPCSKDLGNA
binds: [1] | [5] | [6] | [7]

Source: patent US20160252527A1 (Takeda / Millennium, published 2016)
